Taken from: PubChem BioAssay AID1053208 (Peter MacCallum Cancer Centre, 2014)
Shown is a random part of about 17,000 deposited reagents. 788 of all reagents (4.7%) were called active. 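Calls rest on z-score classes alone; an extra cut-off of viability at most 70% of control was not applied to them.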 The numbers tell different reagents against one gene apart. A reagent listed more than once was tested more than once; the source does not tell the runs apart. Further read-outs or replicates are left out here.

- Test: 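Genes whose silencing cuts survival of bone tumour cells only with doxorubicin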 (primary screen)
- System: mouse osteosarcoma cells, early-passage culture from an engineered mouse model of fibroblastic bone tumour
- Reagents: siRNA pool against mouse genes, 40 nM
- Timing: about 120 h (48 h before drug, then 72 h with drug)
- Conditions: doxorubicin 100 nM for 72 h, roughly 30-40% inhibitory dose
- Measurement: 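Viability read as ATP luminescence after 72 h of 100 nM doxorubicin or none, duplicate wells averaged, scaled to non-targeting siRNA, then expressed as robust z-scores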
- Scale: viability z-score with doxorubicin: higher = more viable cells under doxorubicin; viability z-score without drug: higher = more viable cells with knock-down alone
- Active means: 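Called active if knock-down leaves viability unchanged without drug (z within -2 to 2) but lowers it with doxorubicin (z at or under -2)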

{"Gene":"Foxn1 (forkhead box N1)","pool no.":1,"combined z-score class":"no change with or without drug","viability z-score with doxorubicin":1.12,"viability z-score without drug":-0.51,"outcome":"inactive"}
{"Gene":"Jdp2 (Jun dimerization protein 2)","pool no.":1,"combined z-score class":"no change with or without drug","viability z-score with doxorubicin":-1.24,"viability z-score without drug":0.51,"outcome":"inactive"}
{"Gene":"Spata2 (spermatogenesis associated 2)","pool no.":1,"combined z-score class":"no change with or without drug","viability z-score with doxorubicin":-0.45,"viability z-score without drug":1.01,"outcome":"inactive"}
{"Gene":"Cyb5r1 (cytochrome b5 reductase 1)","pool no.":1,"combined z-score class":"no change with or without drug","viability z-score with doxorubicin":0.9,"viability z-score without drug":0.84,"outcome":"inactive"}
{"Gene":"Krt222 (keratin 222)","pool no.":1,"combined z-score class":"no change with or without drug","viability z-score with doxorubicin":-0.22,"viability z-score without drug":-0.84,"outcome":"inactive"}
{"Gene":"Tor1aip2 (torsin A interacting protein 2)","pool no.":1,"combined z-score class":"no change with or without drug","viability z-score with doxorubicin":1.12,"viability z-score without drug":-0.17,"outcome":"inactive"}
{"Gene":"Tor1aip2 (torsin A interacting protein 2)","pool no.":2,"combined z-score class":"no change with or without drug","viability z-score with doxorubicin":-0.67,"viability z-score without drug":0.84,"outcome":"inactive"}
{"Gene":"Ctsq (cathepsin Q)","pool no.":1,"combined z-score class":"no change with or without drug","viability z-score with doxorubicin":1.35,"viability z-score without drug":-0.17,"outcome":"inactive"}
{"Gene":"Or12k8 (olfactory receptor family 12 subfamily K member 8)","pool no.":1,"combined z-score class":"no change with or without drug","viability z-score with doxorubicin":-1.91,"viability z-score without drug":0.84,"outcome":"inactive"}

Reformatted: 2 of the entries above.
| Gene | pool no. | combined z-score class | viability z-score with doxorubicin | viability z-score without drug | outcome |
| --- | --- | --- | --- | --- | --- |
| Tor1aip2 (torsin A interacting protein 2) | 2 | no change with or without drug | -0.67 | 0.84 | inactive |
| Ctsq (cathepsin Q) | 1 | no change with or without drug | 1.35 | -0.17 | inactive |

The listing continues.
{"Gene":"Slc25a39","pool no.":1,"combined z-score class":"no change with or without drug","viability z-score with doxorubicin":-1.12,"viability z-score without drug":-0.17,"outcome":"inactive"}
{"Gene":"4933428P19Rik (RIKEN cDNA 4933428P19 gene)","pool no.":1,"combined z-score class":"no change with or without drug","viability z-score with doxorubicin":-0.11,"viability z-score without drug":0.67,"outcome":"inactive"}
{"Gene":"Grk4 (G protein-coupled receptor kinase 4)","pool no.":1,"combined z-score class":"no change with or without drug","viability z-score with doxorubicin":0.11,"viability z-score without drug":-0.84,"outcome":"inactive"}
{"Gene":"Grk4 (G protein-coupled receptor kinase 4)","pool no.":1,"combined z-score class":"no change with or without drug","viability z-score with doxorubicin":1.46,"viability z-score without drug":1.85,"outcome":"inactive"}
{"Gene":"Trmt10b (tRNA methyltransferase 10B)","pool no.":1,"combined z-score class":"no change with or without drug","viability z-score with doxorubicin":-1.12,"viability z-score without drug":0.51,"outcome":"inactive"}
{"Gene":"Tnfsf12 (tumor necrosis factor (ligand) superfamily, member 12)","pool no.":1,"combined z-score class":"no change with or without drug","viability z-score with doxorubicin":-0.9,"viability z-score without drug":-0.17,"outcome":"inactive"}
{"Gene":"Meig1 (meiosis expressed gene 1)","pool no.":1,"combined z-score class":"no change with or without drug","viability z-score with doxorubicin":-0.56,"viability z-score without drug":0.34,"outcome":"inactive"}
{"Gene":"Pdia3 (protein disulfide isomerase associated 3)","pool no.":1,"combined z-score class":"no change with or without drug","viability z-score with doxorubicin":-0.9,"viability z-score without drug":-0.17,"outcome":"inactive"}
{"Gene":"Or5l14 (olfactory receptor family 5 subfamily L member 14)","pool no.":1,"combined z-score class":"no change with or without drug","viability z-score with doxorubicin":-0.45,"viability z-score without drug":-0.34,"outcome":"inactive"}
{"Gene":"Itgb7 (integrin beta 7)","pool no.":1,"combined z-score class":"no change with or without drug","viability z-score with doxorubicin":-0.79,"viability z-score without drug":1.01,"outcome":"inactive"}
